PubChem BioAssay AID1259308 – NCATS, 2017
The deposit covers about 59,000 reagents; shown is a part drawn at random. Of all reagents, about 1,510 (2.6%) are marked active. 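Calls use total luciferase alone and ignore viability, so some active siRNAs may act by altering cell number.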 Unmarked entries are inactive. The numbers tell different reagents against one gene apart. Not all columns of the deposit are shown.

Screen: 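Candidate targets for better recombinant protein yield in mammalian cells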 (primary screen)
Cells: human HEK293 embryonic kidney cells stably expressing firefly luciferase (HEK-CMV-Luc2-Hygro)
Reagents: single siRNA against human genes, 0.8 pmol siRNA per well
Time to read-out: 72 h
Measurement: 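Reporter luminescence and viable-cell signal on separate replicate plates, given as percent of non-targeting control and median/MAD z-scores, plus per-cell luciferase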
Reading the numbers: total luciferase, z-score: higher = more reporter protein produced
Call rule: 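An siRNA counts as active if its total luciferase robust z-score exceeds 3; genes with two or more such siRNAs out of three were retested with fresh siRNAs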
Calls: active = raised luciferase; inactive = no rise

total luciferase, z-score, by gene and reagent
SLC35A4: #1 1.16; #2 -0.17; #3 1.39
ERVW-1 (endogenous retrovirus group W member 1, envelope): #1 -0.0492; #2 -0.502; #3 0.509
CCDC13-AS2 (CCDC13 antisense RNA 2): #1 -0.809; #2 0.18; #3 -0.944
EIF2AK3 (eukaryotic translation initiation factor 2 alpha kinase 3): #1 0.0481; #2 0.658; #3 -0.5
MAMDC2 (MAM domain containing 2): #1 -2.24; #2 0.83; #3 0.381
PRKAG2-AS2 (PRKAG2 antisense RNA 2): #1 0.261; #2 1.75; #3 -0.0114; #4 -0.418; #5 0.408; #6 -0.229
RAP2A (RAP2A, member of RAS oncogene family): #1 1.02; #2 -1.44; #3 0.261
